According to PubChem BioAssay AID488840 (Broad Institute, 2010):
The whole screen tested about 1,400 compounds, of which about 45 (3%) were called active.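 How the source made its calls: active means half-maximal dose of signal decrease from fit no higher than ten times the top valid tested dose; inconclusive means fit invalid, or curve flat with 30 to 70% inhibition; inactive means the rest.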 The list shows a part of the results. Measured potencies and affinities stand elsewhere.

The chains behind the UniProt entries cited, without tags or fusion partners. Where a name states a change or a piece, a line headed by the entry shows the natural chain unless it says otherwise.
UniProt O75164: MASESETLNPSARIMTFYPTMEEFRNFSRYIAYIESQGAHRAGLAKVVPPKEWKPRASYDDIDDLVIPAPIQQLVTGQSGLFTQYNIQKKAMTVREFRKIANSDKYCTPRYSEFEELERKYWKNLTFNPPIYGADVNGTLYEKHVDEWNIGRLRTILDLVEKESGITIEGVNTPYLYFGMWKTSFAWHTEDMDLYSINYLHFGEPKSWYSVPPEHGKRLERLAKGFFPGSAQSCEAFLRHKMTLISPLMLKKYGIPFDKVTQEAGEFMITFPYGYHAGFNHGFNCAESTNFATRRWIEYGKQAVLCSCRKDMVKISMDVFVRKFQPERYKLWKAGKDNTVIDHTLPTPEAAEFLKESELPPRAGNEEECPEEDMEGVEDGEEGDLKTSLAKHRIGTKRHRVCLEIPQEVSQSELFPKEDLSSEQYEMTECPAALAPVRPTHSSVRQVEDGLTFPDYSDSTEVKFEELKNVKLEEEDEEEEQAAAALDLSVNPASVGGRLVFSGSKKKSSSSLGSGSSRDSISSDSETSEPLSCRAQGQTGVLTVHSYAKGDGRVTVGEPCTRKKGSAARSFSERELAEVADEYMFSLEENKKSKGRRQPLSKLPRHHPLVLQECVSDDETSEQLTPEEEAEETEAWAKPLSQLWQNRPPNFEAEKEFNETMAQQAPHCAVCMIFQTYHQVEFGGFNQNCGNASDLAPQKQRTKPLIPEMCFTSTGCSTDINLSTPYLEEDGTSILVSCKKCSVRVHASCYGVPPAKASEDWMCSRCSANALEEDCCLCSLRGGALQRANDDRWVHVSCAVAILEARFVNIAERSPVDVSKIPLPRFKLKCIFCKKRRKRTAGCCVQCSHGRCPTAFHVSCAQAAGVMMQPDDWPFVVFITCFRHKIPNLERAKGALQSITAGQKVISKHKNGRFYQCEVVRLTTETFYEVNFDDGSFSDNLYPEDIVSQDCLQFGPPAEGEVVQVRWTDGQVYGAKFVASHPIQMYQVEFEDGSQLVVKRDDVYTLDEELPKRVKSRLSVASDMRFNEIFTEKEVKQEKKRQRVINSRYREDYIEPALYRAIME

target: Lysine-specific demethylase 4A (Homo sapiens) (UniProt O75164); experiment: inhibition of JMJD2A H3K9me3 demethylation – biochemical, DELFIA europium, cherry-picked samples, selectivity assay for GASC-1 inhibitor project, dose response (AID 488840); conditions: GST-JMJD2A(1-420) H3K9me3 demethylation; at 6 µM (top of the series) unless noted;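 further: europium signal reports the dimethyl H3K9 product detected by antibody so inhibitors lower it; 0% = median of neutral control wells and -100% = median of positive control wells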

Activity change, negative = inhibition, inactive:
O=c1c(O)cccc2cc(O)c(O)c(O)c12 -19.6%
CCCC(CCC)C(=O)Nc1cccc(-c2cn3c(n2)SCC3)c1 4.52%
COc1cccc(NC(=O)N2CCN(c3cccc(C)c3)C(C)C2)c1 (configuration not stated) 0.171%
CCCn1nnnc1SCC(=O)NCc1ccc(OC)cc1 -0.185%
C/C(=N\NC(=O)c1ccncc1)c1ccc(N(C)C)cc1 -1.56%
COC(=O)CSC1=C(C#N)C(c2ccsc2)CC(=O)N1 (configuration not stated) 0.445%
COc1ccccc1N1CCN(c2nc3c(C)cccn3c(=O)c2C=O)CC1 -7.79% [at 0.195 µM]
CNCCNC[C@H](Cc1cccc2ccccc12)NCCc1ccccc1 3.68%
CSc1nc(N)nc2c1ncn2CC(=O)NCCNc1ccc([N+](=O)[O-])cn1 -0.915%
Cc1ccc(S(=O)(=O)Nc2ccc3c(c2)C(=O)N([C@H](C)CO)C[C@H](C)[C@@H](CN(C)Cc2ccccc2)O3)cc1 4.3%
COc1ccc(S(=O)(=O)Nc2ccc3c(c2)C(=O)N([C@H](C)CO)C[C@H](C)[C@@H](CN(C)S(=O)(=O)c2c(C)noc2C)O3)cc1 6.71%
Cc1nn(C)c(N)c1C(O)(c1nccn1C)C(F)(F)F (configuration not stated) 7.95%
CC(C)CC1c2[nH]c3ccccc3c2CCN1C(=O)c1cnccn1 (configuration not stated) -3.88%
CNC(=O)C1=NCCCc2cc(OC)c(OC)cc21 2.44%
Cc1cc(C)nc(NC(N)=NC(C)c2ccccc2)n1 (configuration not stated) 3.44%
C[C@H]1CN([C@@H](C)CO)C(=O)Cc2cc(NS(=O)(=O)c3cccs3)ccc2O[C@H]1CN(C)S(=O)(=O)c1cn(C)cn1 0.25%
Cc1cccc(C(=O)N/N=C/C(C)Cc2ccc3c(c2)OCO3)c1 (configuration not stated) 4.82%
Cc1ccc(OC(=O)c2ccc3nc(C)sc3c2)cc1 4.61%
CCCCNC(=O)OCCNC(=O)Oc1cccc(C)c1 1.13%
O=C(COC(=O)C1(c2ccccc2F)CCCC1)Nc1ncc(C(F)(F)F)cc1Cl 4.26%
Cc1ccc(S(=O)(=O)N2[C@@H](c3ccc(Cl)c(Cl)c3)C(C(=O)O)=C[C@H]2C(C)(C)C)cc1 -4.2%
Cc1cc(OC(=O)N2CCOCC2)cc(C)c1Cl 3.85%
Cc1ccc(NN=Nc2nc3c([nH]2)c(=O)n(C)c(=O)n3C)cc1 -12.8%
COc1ccc(C)cc1NC(=O)CN(C)S(=O)(=O)c1ccc2c(c1)CC(C)N2C(C)=O (configuration not stated) -1.46%
O=C(O)CCCNC(=O)c1cccc(C(=O)NCCCC(=O)O)n1 -1.04%
Cc1ccc(/C=N\NC(=O)c2cc([N+](=O)[O-])cc([N+](=O)[O-])c2)o1 -2.67%
Cc1noc(C)c1NC(=O)Nc1cccc2c1O[C@H](CN(C)C(=O)Nc1ccc3c(c1)OCO3)[C@@H](C)CN([C@H](C)CO)C2=O 3.31%
O=[N+]([O-])c1ccccc1N/N=C\c1ccccc1Cl -1.83%
COc1ccc(C)cc1-n1nnnc1SC/C(O)=C(\C#N)c1nc2ccccc2[nH]1 -2.92%
CCCS(=O)(=O)N1CCN(S(=O)(=O)c2ccccc2[N+](=O)[O-])CC1 -4%
Cc1csc(SCC(=O)Nc2ccccc2C)n1 -3.18%
O=c1[nH]cnc2c1c(-c1ccccc1)cn2-c1ccccc1 -0.667%
Cc1ccc(C)c(S(=O)(=O)Nc2cc(SCC(=O)O)c(O)c3ccccc23)c1 2.64%
COc1ccc(N=Cc2cccc(C)c2O)cc1Cl -3.87%
Cn1nc(NC(=O)C(C)(C)C)c2c(F)cccc21 -2.53%
O=C1CC(N2CCC(O)(c3ccc(Cl)cc3)CC2)C(=O)N1Cc1ccc(N2CCCC2=O)cc1 (configuration not stated) 1.09%
CN(C)CCOc1ccc(-c2c(-c3ccccc3)sc3ccccc23)cc1 1.07%
Cc1cc(C)c2cc(C#N)c(SCC(=O)Nc3ccc4c(c3)OCO4)nc2c1 -11.4%
O=C(NCc1nnc(SCC(=O)N2CCCCC2)o1)c1c(F)cccc1F 0.925%
Nc1cc(OC(=O)c2ccccc2Br)nn1S(=O)(=O)c1ccccc1 -1.6%
CN(CCCNC(=O)CSc1cc(=O)n(C)c2ccc(Cl)cc12)Cc1ccccc1 1.02%
CCn1c(SCC(=O)NCc2ccco2)nnc1-c1cccs1 2.79%
Cc1ccc(NC(=O)COC(=O)c2ccco2)cc1S(=O)(=O)N1CCOCC1 -1.17%
C=CCNC(=S)NNC(=O)COc1cccc(Cl)c1 -1.84%
O=C(Nc1cccc(Cl)c1)NC1CCN(C2CCCCC2)C1 (configuration not stated) 0.254%
NC(=O)COc1cccc2cccnc12 8.35%
CC(C)NC(=O)Nc1cccc2c1O[C@H](CN(C)C(=O)NC1CCCCC1)[C@H](C)CN([C@H](C)CO)C2=O -2.85%
COc1ccc(CCNC(=O)c2ccc3c(c2)NC(=O)C(N2CCOCC2)S3)cc1OC (configuration not stated) 10.6%
COc1cc(S(=O)(=O)N(Cc2cccs2)CC2CCCO2)ccc1-n1cnnn1 (configuration not stated) 0.517%
CC(=O)C(Sc1nc(N2CCOCC2)nc(N2CCOCC2)n1)C(=O)Nc1ccccc1 (configuration not stated) -2.12%
COc1ccc(OCC(=O)N2CCC3(CC2)CC(=O)c2ccccc2O3)cc1 -2.29%
COc1ccc(CNC(=O)CSc2nnnn2Cc2ccccc2)cc1 1.37%
Clc1cccc(Cl)c1Cn1c(-c2cccnc2Cl)nc2ccccc21 3.42%
O=C(NC(=S)Nc1ccccn1)c1ccc([N+](=O)[O-])cc1 2.6%
Cc1nnc2c(N3CCN(C(=O)c4ccco4)CC3)nc3ccccc3n12 5.77%
O=C(O)c1ccc2cc(-c3ccccc3)[nH]c2c1 1.97%
CCCN(CC(=O)Nc1ccccc1C)C(=O)CCl 2.09%

Quoted at random: 2 compounds from above.
Activity change, negative = inhibition, inactive:
Cc1ccc(NC(=O)COC(=O)c2ccco2)cc1S(=O)(=O)N1CCOCC1 -1.17%
Cc1nn(C)c(N)c1C(O)(c1nccn1C)C(F)(F)F (configuration not stated) 7.95%
